According to paper PMC5053694:
Results are given in words; binding and its absence hold for the method and conditions named. In cells and extracts the contact can be indirect. Some results given as binding are weak or reduced against the parent protein; the word gives no strength.

Chains of the proteins cited; added tags and fusions are not shown. Residues count along the entry.
UniProt Q9BYZ8, residues 23-158: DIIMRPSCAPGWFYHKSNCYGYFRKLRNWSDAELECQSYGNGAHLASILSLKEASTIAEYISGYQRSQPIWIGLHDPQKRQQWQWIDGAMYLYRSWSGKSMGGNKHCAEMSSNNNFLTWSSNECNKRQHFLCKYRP

Molecular target: REG4-Flag (regenerating islet-derived family, member 4, Flag-tagged) (human) (UniProt Q9BYZ8)
Assay: co-IP; whole cell extracts of SGC-7901/REG4-Flag immunoprecipitated with anti-Flag antibody, and of SGC-7901/GPR37-HA with anti-HA antibody; blots with anti-GPR37 and anti-REG4 antibody

binding: binds
B1: G protein-coupled receptor 37 (GPR37) (receptor, UniProt O15354 27-613)
chain: ALGVAPASRNETCLGESCAPTVIQRRGRDAWGPGNSARDVLRARAPREEQGAAFLAGPSWDLPAAPGRDPAAGRGAEASAAGPPGPPTRPPGPWRWKGARGQEPSETLGRGNPTALQLFLQISEEEEKGPRGAGISGRSQEQSVKTVPGASDLFYWPRRAGKLQGSHHKPLSKTANGLAGHEGWTIALPGRALAQNGSLGEGIHEPGGPRRGNSTNRRVRLKNPFYPLTQESYGAYAVMCLSVVIFGTGIIGNLAVMCIVCHNYYMRSISNSLLANLAFWDFLIIFFCLPLVIFHELTKKWLLEDFSCKIVPYIEVASLGVTTFTLCALCIDRFRAATNVQMYYEMIENCSSTTAKLAVIWVGALLLALPEVVLRQLSKEDLGFSGRAPAERCIIKISPDLPDTIYVLALTYDSARLWWYFGCYFCLPTLFTITCSLVTARKIRKAEKACTRGNKRQIQLESQMNCTVVALTILYGFCIIPENICNIVTAYMATGVSQQTMDLLNIISQFLLFFKSCVTPVLLFCLCKPFSRAFMECCCCCCEECIQKSSTVTSDDNDNEYTTELELSPFSTIRREMSTFASVGTHC
